Data: US8084434
No constants are given. Whether binding was seen depends on the method and setting. In cells and extracts the contact can be indirect. Some entries that bind do so weakly or less than the wild type.

Sequences of proteins named here, by UniProt entry; tags and fusion partners are left off. A change or cut given only in a name is not applied to a line headed by its entry.
UniProt Q13950: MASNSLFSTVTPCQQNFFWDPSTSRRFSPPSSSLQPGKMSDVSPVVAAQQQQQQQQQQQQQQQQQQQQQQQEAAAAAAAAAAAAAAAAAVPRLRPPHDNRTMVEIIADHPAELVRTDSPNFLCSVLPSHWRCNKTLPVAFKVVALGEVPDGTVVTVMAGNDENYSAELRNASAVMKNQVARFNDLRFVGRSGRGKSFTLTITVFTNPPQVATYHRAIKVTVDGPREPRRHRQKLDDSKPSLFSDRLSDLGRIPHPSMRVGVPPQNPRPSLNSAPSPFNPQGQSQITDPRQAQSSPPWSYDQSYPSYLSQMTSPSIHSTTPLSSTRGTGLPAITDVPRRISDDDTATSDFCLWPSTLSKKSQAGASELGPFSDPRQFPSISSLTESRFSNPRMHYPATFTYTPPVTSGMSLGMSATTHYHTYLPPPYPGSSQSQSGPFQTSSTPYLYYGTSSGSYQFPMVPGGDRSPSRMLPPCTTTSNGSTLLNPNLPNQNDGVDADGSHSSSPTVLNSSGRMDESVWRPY
UniProt P46937: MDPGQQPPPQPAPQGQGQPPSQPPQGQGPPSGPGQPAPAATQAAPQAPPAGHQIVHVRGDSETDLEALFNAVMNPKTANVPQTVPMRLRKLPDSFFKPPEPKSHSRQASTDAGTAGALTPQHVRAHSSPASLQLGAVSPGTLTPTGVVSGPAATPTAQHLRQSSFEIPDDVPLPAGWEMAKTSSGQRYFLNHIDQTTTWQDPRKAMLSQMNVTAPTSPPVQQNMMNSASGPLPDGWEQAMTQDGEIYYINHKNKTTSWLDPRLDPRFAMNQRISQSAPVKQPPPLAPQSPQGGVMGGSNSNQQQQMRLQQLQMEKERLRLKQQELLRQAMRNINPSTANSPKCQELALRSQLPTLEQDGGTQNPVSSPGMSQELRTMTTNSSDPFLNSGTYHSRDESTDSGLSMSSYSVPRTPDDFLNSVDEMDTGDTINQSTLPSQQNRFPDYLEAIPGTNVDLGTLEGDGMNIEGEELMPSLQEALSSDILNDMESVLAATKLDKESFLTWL

What was measured:
[1] = target: Flag.RUNX2 (Homo sapiens (Human)) (UniProt Q13950); experiment: co-immunoprecipitation of Flag.RUNX2 and HA.YAP
[2] = target: Flag.RUNX2 (Homo sapiens (Human)) (UniProt Q13950); experiment: reciprocal co-immunoprecipitation from nuclear lysates of transfected HEK293 cells, Western blot

- binding [1]: binds
- binding [2]: binds
Substance: HA.YAP (from UniProt P46937 1-504)
